Data published in patent US6828392 (dated 2004).

Experiments:
[1] = general procedure: Fmoc solid-phase peptide synthesis; HYDRA resin 4c (photolabile linker); Fmoc amino acid OPfp esters/HOAt or Fmoc amino acid/TBTU/N-ethyl morpholine; details: whole synthesis, RP-HPLC; run 1
[2] = general procedure: Fmoc solid-phase peptide synthesis; PEGA800; Fmoc amino acid OPfp esters/HOAt or Fmoc amino acid/TBTU/N-ethyl morpholine; details: whole synthesis, RP-HPLC; run 2

AcY(NO2)FN(Trt)PLAVK(Boc-Abz)
crude HPLC purity [1]: greater than 95% pure | crude HPLC purity [2]: 95%
